# Source: PubChem BioAssay AID2685 (National Center for Advancing Translational Sciences (NCATS), 2010)
# This is one part of the list. Shown are side measurements of this screen, not its main read-out; they come without a call. The list favours compounds with an active or inconclusive main result. Words in brackets tell the shape of the fitted curve; partial curves, single points and poor fits give uncertain potencies.
# Assay: qHTS Assay for Lipid Storage Modulators in Drosophila S3 Cells;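 on cell number change: cells counted by Cell Tracker Red CMTPX staining in the red channel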
# Details: BODIPY lipid droplet fluorescence, 18-24 h; for cell number change: measured here: cell count max response, cells fed with added oleic acid
# Procedure, shortened: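 Drosophila S3 cells loaded with oleic acid (400 uM, as added) and compounds at several concentrations; lipid droplets imaged by 488-nm laser-scanning cytometry, 500–530 nm intensity and object ratio to cell channel. Percent activity normalized to 20 uM Triacsin C.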
# [1] = measured here: cell number channel AC50, cells fed with added oleic acid
# [2] = measured here: lipid fluorescence (Fed channel) AC50, cells fed with added oleic acid
Compound,cell number change,AC50 [1],AC50 [2]
N#Cc1ccc(C(=O)Nc2cccc(NC(=O)c3ccco3)c2)c(F)c1,-50.3%,"0.82 µM [falling, full curve]","1.3 µM [falling, full curve]"
CCNC(=S)NNC(=O)c1ccccn1,-50.9%,"29.1 µM [falling, single point]","29.1 µM [falling, single point]"
C/C(=N\NC(=O)Cc1ccc(F)cc1)c1ccc(F)cc1,-31.5%,"20.6 µM [falling, single point]","29.1 µM [falling, single point]"
COc1ccccc1C(=O)CSc1nccn1C,-22.9%,,"29.1 µM [falling, single point]"
Cc1cccc(C(=O)NCCCNC(=O)c2cccc(C)c2)c1,-32.7%,"32.6 µM [falling, single point]",
CCn1nc(NS(=O)(=O)c2ccc(NC(C)=O)cc2)c2cc3ccc(C)cc3nc21,41.1%,"25.9 µM [rising, single point]",
O=C(N/N=C/c1ccoc1)c1ccc(Cl)cc1,-18.4%,,
CCOC(=O)c1sc(Nc2nc(OC)cc(OC)n2)nc1C,1.39%,,
Cc1ccsc1C1C2=C(CC(C)(C)CC2=O)Nc2ncnn21 (stereo not given),17.2%,,
C=CCn1c(SCC(=O)NCC2CCCO2)nc2scc(-c3ccc(OC)cc3)c2c1=O (stereo not given),-19.4%,,"6.51 µM [falling, single point]"
CC(c1nnnn1C(C)(C)C)N(Cc1cccnc1)Cc1ccccc1Cl (stereo not given),27.6%,"0.651 µM [rising, full curve]",
Cc1csc(N/N=C/c2ccc([N+](=O)[O-])cc2)n1,-18.6%,,"0.731 µM [falling, single point]"
CN(C)Cc1cc(C(C)(C)C)cc(C(C)(C)C)c1O,20.5%,"1.16 µM [rising, full curve, poor fit]","1.84 µM [rising, partial curve]"
CC(C)CNC(=O)c1cccc(NC(=O)CCc2ccccc2)c1,2.95%,,"0.00517 µM [rising, full curve, poor fit]"
COc1ccc(C)cc1S(=O)(=O)n1c([N+](=O)[O-])cnc1C,28.2%,,
O=C(NCC(=O)N1CCN(C(=O)c2ccccc2)CC1)c1ccc(Cl)cc1Cl,6.84%,,"5.17 µM [rising, partial curve]"
O=C(O)c1ccc2nc(CO)[nH]c2c1,-38.3%,"16.4 µM [falling, partial curve]","0.461 µM [falling, partial curve, poor fit]"
O=C(N/N=C/c1ccccc1C(=O)O)c1cccc(S(=O)(=O)Nc2cc(Cl)ccc2Cl)c1,13.8%,,
CCC(C)NC(=O)c1cccc(OCc2c(C)noc2C)c1 (stereo not given),47.1%,,"18.4 µM [rising, single point]"
COc1ccc2cc(C(=O)N3CCCCCC3)sc(=O)c2c1OC,-24.3%,,"14.6 µM [falling, partial curve]"
O=C(NCC(O)c1ccccc1)c1ccc(Cl)c(S(=O)(=O)N2CCCC2)c1 (stereo not given),33.3%,"16.4 µM [rising, single point]",

# Looked up one by one from the list above, 2 records:
Compound,cell number change,AC50 [1],AC50 [2]
O=C(NCC(O)c1ccccc1)c1ccc(Cl)c(S(=O)(=O)N2CCCC2)c1 (stereo not given),33.3%,"16.4 µM [rising, single point]",
O=C(N/N=C/c1ccccc1C(=O)O)c1cccc(S(=O)(=O)Nc2cc(Cl)ccc2Cl)c1,13.8%,,

# Remaining list, next part

Compound,cell number change,AC50 [1],AC50 [2]
Cc1sc(NC(=O)c2ccccc2)c(C(=O)N2CCN(C)CC2)c1C,-24.1%,"2.59 µM [falling, single point]",
COc1ccc(N2CCN(c3ccc(NC(=O)C4CCCCC4)cc3C#N)CC2)cc1,-147%,"29.1 µM [falling, single point]",
CCOC(=O)C1CCCN(S(=O)(=O)c2ccc(Cl)nc2)C1 (stereo not given),,"0.58 µM [falling, single point]",
COc1ccc(CCn2c(C3CCCCC3)nc3c(c(=O)c4ccccc4n3C)c2=O)cc1,,"0.461 µM [rising, full curve]","0.58 µM [rising, full curve]"
COC(=O)c1cc2n3ccccc3c(C)c(-c3ccccc3)c-2c1C(=O)OC,,"2.91 µM [rising, partial curve]","16.4 µM [falling, partial curve]"
COc1ccc(CCNC(=O)c2ccc3ccccc3n2)cc1OC,1.79%,"6.51 µM [falling, single point]",
COC(=O)c1ccc(OC)c(CSc2nnc(COc3ccc(OC)cc3)o2)c1,,,"29.1 µM [rising, single point]"
COc1cc(C)ccc1OCCCCNCc1ccccc1,3.89%,,"0.731 µM [rising, single point]"
C/C(=N\NC(=O)c1ccccc1)c1nc2ccccc2n1C,-2.41%,,"0.164 µM [rising, full curve, poor fit]"
COCCCN1C(=O)C(=O)/C(=C(/O)c2ccc(OC(C)C)cc2)C1c1ccc(O)c(OC)c1 (stereo not given),5.29%,"0.651 µM [falling, single point]","0.58 µM [falling, single point]"
CCOCC(=O)N1CCN(c2ccccc2OC)CC1,14.7%,,
Cc1ccc(-c2nnn(CC(=O)N(Cc3cccs3)C(C(=O)NCC3CCCO3)c3ccco3)n2)o1 (stereo not given),-15.2%,,"29.1 µM [falling, single point]"
Cc1c(C)n(CC(O)CN2CCCCC2)c2ccccc12 (stereo not given),-15.9%,,
COc1ccc(CN2CCC(C(=O)N(C)CCc3ccc(OC)c(OC)c3)CC2)c(OC)c1,-7.94%,"0.517 µM [falling, full curve, poor fit]",
C/C(=N/NS(=O)(=O)c1ccc(C)cc1)c1cccc(NC(=O)c2cccc(Cl)c2)c1,96.6%,"23.1 µM [rising, single point]","0.731 µM [rising, single point]"
CC1(C)CC(=O)C=C(NCCO)C1,-3.63%,,
CC(=O)N1CCN(S(=O)(=O)c2cccc(C(=O)NNC(=O)Cn3nc(C)cc3C)c2)CC1,-33.8%,"32.6 µM [falling, single point]","0.731 µM [falling, full curve]"
CCOC(=O)c1cccc(NC(=O)C2(S(=O)(=O)c3ccc(C)cc3)CC2)c1,-2.5%,,"1.16 µM [falling, single point]"
CSCc1cc(N(C)C)nc(SCc2ccc(Cl)c(Cl)c2)n1,-8.19%,,
FC(F)(F)c1cccc(NC(=S)N(CCCN2CCCC2)Cc2cccn2Cc2ccc(Cl)cc2)c1,-87.1%,"20.6 µM [falling, single point]","20.6 µM [falling, single point]"
O=C(Nc1ccccc1-c1ccccc1)c1cccc([N+](=O)[O-])c1,4.34%,,"6.51 µM [rising, single point]"

# A different layout for 2 compounds above:
Compound | cell number change | AC50 [1] | AC50 [2]
N#Cc1ccc(C(=O)Nc2cccc(NC(=O)c3ccco3)c2)c(F)c1 | -50.3% | 0.82 µM [falling, full curve] | 1.3 µM [falling, full curve]
CCNC(=S)NNC(=O)c1ccccn1 | -50.9% | 29.1 µM [falling, single point] | 29.1 µM [falling, single point]

# Additional structures follow:

Compound,cell number change,AC50 [1],AC50 [2]
CCOc1ccc(NC(=O)C2CCN(S(=O)(=O)c3ccc4c(c3)CC(C)N4C(C)=O)CC2)cc1 (stereo not given),-18.5%,,"0.0184 µM [rising, single point]"
Cc1ccc(C(O)c2ccncc2)cc1 (stereo not given),15.1%,,"0.731 µM [falling, full curve]"
CCOC(=O)n1c(SCC(=O)N(CC)CC)nc2ccccc21,,"6.51 µM [rising, single point]","7.31 µM [rising, partial curve]"
CCCCNC1CCS(=O)(=O)C1 (stereo not given),-78.1%,"29.1 µM [falling, single point]",
O=C(CC1C(=O)NCCN1Cc1cccc(F)c1)NC1CCCCCC1 (stereo not given),35.5%,"29.1 µM [rising, single point]","20.6 µM [rising, single point]"
CC(OC(=O)c1cccc(S(=O)(=O)N2CCN(C)CC2)c1)C(=O)Nc1ccc(C(N)=O)cc1 (stereo not given),2.26%,,"1.46 µM [falling, partial curve, poor fit]"
CCOC(=O)c1cnc(SCC(=O)OCC(=O)NC2CCS(=O)(=O)C2)nc1N (stereo not given),6.12%,,"2.91 µM [falling, full curve]"
CCOc1ccc(-c2noc(COC)n2)cc1OC,,"1.03 µM [rising, full curve]",
COc1ccc(CCC(C)N(C)Cc2ccccc2)cc1 (stereo not given),2.2%,,"29.1 µM [rising, partial curve, poor fit]"
O=C(NCCN1CCOCC1)c1cc2cc(Br)ccc2oc1=O,25.5%,,
O=C1/C(=C/c2ccc([N+](=O)[O-])cc2)CCc2ccccc21,21.9%,,"0.517 µM [rising, full curve]"
Cc1nc2c(Br)c(C)nn2c2c1CCC2,11.3%,,
C=CCn1c(SCC(=O)NC)nnc1C12CC3CC(CC(C3)C1)C2,-21.2%,,"0.0291 µM [falling, full curve, poor fit]"
O=C(Cn1ccc(NC(=O)OCc2ccccc2)nc1=O)NCc1ccc2c(c1)OCO2,-13%,,"2.06 µM [falling, single point]"
CCOc1ccc(C(=O)NC2CCN(CC(=O)NCc3ccccc3)CC2)cc1,10.5%,,"23.1 µM [rising, partial curve]"
Cc1cc(C)n(-c2ccc(C(=O)OCc3ccccc3)cc2)n1,13.4%,,"5.8 µM [rising, partial curve]"
Cc1ccc2nc(SC(C)C(=O)N3CCCCC3)[nH]c2c1 (stereo not given),1.64%,,
CCOC(=O)c1c(-c2cccc3ccccc23)csc1NC(=O)C1C2CCC(O2)C1C(=O)O (stereo not given),-21.7%,,"1.3 µM [falling, full curve, poor fit]"
CCn1c(COc2ccccc2)nnc1SCC(=O)Nc1cc(C)ccc1OC,-14.6%,,"18.4 µM [falling, single point]"
CCc1ccc(N(CC(=O)NCc2cccnc2)S(=O)(=O)c2ccccc2)cc1,9.19%,,
Cc1cc(C)n(CC(=O)c2ccc(Br)cc2)c(=O)c1C#N,26.1%,,"0.651 µM [falling, single point]"
